# Results: US7449301B2, “Pharmaceutical composition and method for activating macrophage using the same” (National University Corporation Gunma University, priority 2004, dated 2008)
# At least one compound was matched to its structure with a doubt left.
# Test system: PEMs
# Test: Immunocytofluorescence of PEMs (morphology, F-actin, activated MAPK)
# Assay type: cell-based, mouse
# Settings: PEMs treated with mAb80 in presence of inhibitor; FIG. 4B
# Description: PEMs treated with rat IgG, mAb80 or mAb84 were fixed for 20 to 30 min at room temperature in PBS containing 4% paraformaldehyde and 0.1% glutaraldehyde, and were then permeabilized for 60 min at room temperature in PBS containing 0.1% Triton X-100 and 5% goat serum (blocking solution). After incubation for 1 h at room temperature or overnight at 4° C. with primary antibody (anti-activated MAPK antibody) diluted in blocking solution, the cells were washed with PBS and incubated for 1 h at room temperature with Alexa488-conjugated secondary antibodies (Molecular Probes) diluted in blocking solution. For visualization of F-actin, cells were incubated with rhodamine-conjugated phalloidin (Molecular Probes) together with the secondary antibodies. The cells were finally washed with PBS and mounted. Fluorescence images were acquired with a laser-scanning confocal microscope (LSM5 PASCAL, Zeiss) (FIG. 4).
compound,measurement,value
COC[C@H]1OC(=O)c2coc3c2[C@@]1(C)C1=C(C3=O)[C@@H]2CCC(=O)[C@@]2(C)C[C@H]1OC(C)=O [wortmannin],effect of inhibitor on morphological change of PEMs induced by anti-SIRPβ antibody,but not by treatment
